Screening data, single-dose tests

Chains of the proteins cited; added tags and fusions are not shown. Residues count along the entry.
UniProt P9WFT3, whole entry: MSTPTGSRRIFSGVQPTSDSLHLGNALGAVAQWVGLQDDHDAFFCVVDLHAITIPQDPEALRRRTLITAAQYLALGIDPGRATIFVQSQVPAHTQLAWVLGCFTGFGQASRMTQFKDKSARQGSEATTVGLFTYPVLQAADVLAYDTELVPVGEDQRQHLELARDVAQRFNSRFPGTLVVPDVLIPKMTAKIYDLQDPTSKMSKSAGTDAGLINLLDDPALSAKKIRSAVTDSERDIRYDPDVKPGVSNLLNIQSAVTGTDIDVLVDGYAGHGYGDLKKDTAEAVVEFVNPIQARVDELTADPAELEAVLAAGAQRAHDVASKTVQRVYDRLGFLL
UniProt I6X8D2, whole entry: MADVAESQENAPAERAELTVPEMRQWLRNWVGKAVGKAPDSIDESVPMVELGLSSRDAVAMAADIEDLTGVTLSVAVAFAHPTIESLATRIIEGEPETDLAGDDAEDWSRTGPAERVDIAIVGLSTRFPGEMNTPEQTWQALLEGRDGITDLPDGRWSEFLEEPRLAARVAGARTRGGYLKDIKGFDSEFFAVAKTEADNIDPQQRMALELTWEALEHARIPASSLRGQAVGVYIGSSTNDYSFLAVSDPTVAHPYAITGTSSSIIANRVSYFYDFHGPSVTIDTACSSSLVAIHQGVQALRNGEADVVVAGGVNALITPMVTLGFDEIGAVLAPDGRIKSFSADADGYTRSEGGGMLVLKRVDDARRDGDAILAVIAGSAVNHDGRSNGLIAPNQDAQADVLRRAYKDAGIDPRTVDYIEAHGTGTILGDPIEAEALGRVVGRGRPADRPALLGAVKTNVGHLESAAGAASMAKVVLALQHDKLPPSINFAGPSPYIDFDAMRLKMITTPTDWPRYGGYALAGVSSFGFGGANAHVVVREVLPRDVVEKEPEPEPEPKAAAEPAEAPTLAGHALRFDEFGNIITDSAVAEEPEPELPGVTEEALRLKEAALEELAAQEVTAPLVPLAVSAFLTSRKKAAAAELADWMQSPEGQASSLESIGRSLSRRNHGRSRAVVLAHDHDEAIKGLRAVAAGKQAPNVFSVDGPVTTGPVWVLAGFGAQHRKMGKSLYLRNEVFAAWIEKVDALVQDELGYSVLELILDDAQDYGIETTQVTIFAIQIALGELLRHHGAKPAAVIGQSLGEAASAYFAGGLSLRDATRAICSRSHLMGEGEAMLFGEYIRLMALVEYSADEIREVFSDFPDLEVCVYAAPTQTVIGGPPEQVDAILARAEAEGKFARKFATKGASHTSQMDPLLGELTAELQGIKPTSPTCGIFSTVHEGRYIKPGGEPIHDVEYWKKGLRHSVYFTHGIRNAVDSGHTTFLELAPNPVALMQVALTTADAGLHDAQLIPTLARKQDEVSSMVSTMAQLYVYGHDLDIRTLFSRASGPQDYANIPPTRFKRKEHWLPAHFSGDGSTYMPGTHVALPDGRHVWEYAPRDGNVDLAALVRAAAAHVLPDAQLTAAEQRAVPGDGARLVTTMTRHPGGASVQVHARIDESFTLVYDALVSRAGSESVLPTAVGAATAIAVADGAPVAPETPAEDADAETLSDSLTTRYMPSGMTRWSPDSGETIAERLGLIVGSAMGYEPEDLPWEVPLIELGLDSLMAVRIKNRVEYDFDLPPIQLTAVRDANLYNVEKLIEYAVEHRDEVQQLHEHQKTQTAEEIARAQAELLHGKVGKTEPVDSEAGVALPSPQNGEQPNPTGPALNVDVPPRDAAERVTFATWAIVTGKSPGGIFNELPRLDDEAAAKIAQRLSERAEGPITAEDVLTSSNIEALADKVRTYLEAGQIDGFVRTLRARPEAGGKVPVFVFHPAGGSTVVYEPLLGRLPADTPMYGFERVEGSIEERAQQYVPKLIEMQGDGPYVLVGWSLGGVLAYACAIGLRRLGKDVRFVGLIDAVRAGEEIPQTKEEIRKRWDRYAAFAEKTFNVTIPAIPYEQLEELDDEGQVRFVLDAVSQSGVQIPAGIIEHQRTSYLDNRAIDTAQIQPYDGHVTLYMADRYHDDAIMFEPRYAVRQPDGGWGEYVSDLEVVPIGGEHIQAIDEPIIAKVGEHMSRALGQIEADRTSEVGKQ
UniProt Q4DA54, 1-478: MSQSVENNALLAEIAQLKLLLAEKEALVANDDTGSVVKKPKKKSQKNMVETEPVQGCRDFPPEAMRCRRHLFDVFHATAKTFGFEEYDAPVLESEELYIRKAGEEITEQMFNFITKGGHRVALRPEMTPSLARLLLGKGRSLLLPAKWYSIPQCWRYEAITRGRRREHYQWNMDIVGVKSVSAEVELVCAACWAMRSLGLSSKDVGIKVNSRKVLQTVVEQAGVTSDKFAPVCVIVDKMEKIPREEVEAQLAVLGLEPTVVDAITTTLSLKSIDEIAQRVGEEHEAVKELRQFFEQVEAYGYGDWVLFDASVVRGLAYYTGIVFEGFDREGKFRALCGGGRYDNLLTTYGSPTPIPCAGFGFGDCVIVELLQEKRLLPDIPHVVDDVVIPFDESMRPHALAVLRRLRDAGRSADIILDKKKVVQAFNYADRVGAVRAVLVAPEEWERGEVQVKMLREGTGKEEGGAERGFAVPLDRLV

Source: ChEMBL document CHEMBL3988442, “University of Dundee, Small-Polar-MMV Screening Library” (2021).

A: 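Tryptophan-tRNA ligase, Mycobacterium tuberculosis (UniProt P9WFT3). Enzyme assay of tryptophanyl-tRNA synthetase; the read-out is not stated. Compounds at 10 µM. Higher most likely means stronger inhibition; the record gives no direction and few retests gave an IC50. About 65,000 compounds were tested under these conditions; 0.098% (about 64) showed 50% or more at least once.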
B: 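Cell assay of Leishmania donovani living inside macrophages; the read-out is not stated. Compounds at 30 µM. Higher reads as stronger inhibition (inferred: compounds with an IC50 in retests scored well above the rest). Of about 69,000 compounds tested this way, about 1,000 (1.5%) reached 50% or more in at least one test.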
C: 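Enzyme assay of the thioesterase domain of polyketide synthase 13; the read-out is not stated. Target: Polyketide synthase Pks13, Mycobacterium tuberculosis (UniProt I6X8D2). Concentration: 30 µM. Higher reads as stronger inhibition (inferred from which compounds were picked for retests). About 67,000 compounds were tested under these conditions; 0.46% (about 300) showed 50% or more at least once.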
D: 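Enzyme assay of histidyl-tRNA synthetase; the read-out is not stated. Target: Histidine-tRNA ligase, Trypanosoma cruzi CL Brener (UniProt Q4DA54). Concentration: 30 µM. The record gives no direction; compounds that gave an IC50 in retests scored well above the rest, so higher reads as stronger inhibition. Size under these conditions: about 69,000 compounds, about 31 of them at 50% or above in at least one test.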

Values are the deposited “Percent Effect”, in %. How 0% and 100% were set is not recorded. Most values in the screen are low, and negative values occur. Compounds were drawn at random from those tested, without regard to their results. A dash means the value is not listed here; it may have been measured.

structure,A,B,C,D
CCc1ncnc2c1CCN(Cc1ccc(OC)cc1)CC2.O=C(O)C(F)(F)F,-,22.21%,-,-
COCCCn1cnnc1CNc1cc(C)nc2ccnn12,-0.722%,3.292%,-18.34%,1.064%
CCc1ccccc1CN1CCn2nc(CNC(C)=O)cc2C1,0.6798%,-29.63%,11.94%,1.22%
O=S1(=O)c2ccccc2C2(CCN(Cc3ccccc3)C2)N1CC1CC1 (stereo not given),0.7048%,-,-14.38%,1.639%
CC(=O)N1CCC2(CCN(Cc3ccccn3)C2=O)C1.O=C(O)C(F)(F)F (stereo not given),-,37.13%,-,-
O=C(O)C(F)(F)F.O=C(O)C(F)(F)F.[H][C@@]12COC[C@]1(COc1cccnc1)CN(Cc1ccsc1)C2,-,5.488%,-,-
Cn1nc(CNC(=O)c2ccc3c(c2)OCO3)c2c1CCOC2,3.902%,-4.449%,-3.995%,4%
Cc1nccn1CCN(C)c1nc(-c2cccnc2)nc2c1CCNC2,0.7524%,20.05%,-7.543%,1.961%
CN1CCCC(C(=O)N2CCC(Oc3ccccn3)CC2)C1 (stereo not given),-4.787%,-3.844%,-31.86%,0%
Cc1cncc(C(=O)N2CCCC(O)(CN3CCCC3)C2)c1 (stereo not given),-4.025%,22.06%,-23.74%,0.5525%
CC(C)CN1C(=O)CC[C@H]2CN(Cc3ncc[nH]3)CC[C@H]21,-4.156%,-,-27.05%,5.202%
Cc1noc(C)c1CNC(=O)N1CCN(CC2CC2)CC1,2.29%,-1.33%,-20.08%,0%
COc1cccc(/C=C/CCN2CCN(S(C)(=O)=O)CC2)c1,-3.786%,13.01%,-19.81%,3.922%
Cc1cnccc1CNCc1ccc(OC23CCCN(CC2)C3)cc1 (stereo not given),4.693%,13.67%,-12.14%,26.13%
Cc1ccsc1CNC(=O)CCc1c(C)nc2cc(O)nn2c1C,-3.213%,-31.54%,1.656%,6.322%
Cc1cc(C2CCCN2Cc2cc(=O)n(C)c(=O)n2C)on1 (stereo not given),-3.463%,-11.72%,-18.91%,0.3774%
COc1ccc2c(=O)ccn(CC(=O)O)c2c1,-2.225%,-1.431%,-5.786%,3.509%
[H][C@]12CC[C@]([H])(CN(Cc3cccc(C(=O)Nc4c(C)nn(C)c4C)c3)C1)N2,-,28.91%,-,-
[H][C@@]12CS(=O)(=O)C[C@]1([H])N(C(=O)Nc1cccc(C#N)c1)CCN2C(=O)CC,-,17.73%,-,-
N#CC1CCCN(S(=O)(=O)c2ccc(C(=O)NCC(F)F)cc2)C1 (stereo not given),-5.276%,-22.69%,-3.298%,10.4%
COC(=O)C(c1cc(F)ccc1F)N(C)C(=O)c1ccnc(C)n1 (stereo not given),1.267%,-10.65%,-6.017%,1.88%
O=C(O)C(F)(F)F.O=C(c1cnccn1)N1CCCC2(CCN(Cc3ccc(F)cc3)C2)C1 (stereo not given),-,22.24%,-,-
CCc1cc(=O)n(CC(=O)N2CCCC2)c(-c2ccc(F)cc2)n1,3.692%,7.355%,-10.92%,5.804%
CN(C)C1CCN(C(=O)c2cc(-c3ccn(C)n3)n3ccccc23)CC1,-,-,-16.65%,5.291%
O=C(O)C(F)(F)F.[H][C@@]12COC[C@H](C(=O)Nc3cnccn3)[C@]1([H])CN(C1CCCC1)C2,-,20.21%,-,-
CCc1noc(C)c1C(=O)N1CCCC1Cn1nc(C)cc1C (stereo not given),1.852%,16.55%,-9.657%,0.7576%
CO[C@@H]1c2ccccc2C2(CCN(C(=O)CNS(C)(=O)=O)CC2)[C@H]1O,-2.067%,-38.73%,4.484%,0%
Cc1nnc(NC(=O)NCc2ccc(OC(C)C)nc2)s1,24.95%,-6.298%,-17.31%,4%
CCN1CC2(CCN(C(=O)C3CSC(C)(C)C(=O)N3)CC2)CC1=O (stereo not given),1.514%,13.2%,-12.09%,-4.459%
COc1ccc(C)cc1C1(CNc2cn[nH]c(=O)c2Cl)CCOCC1,-8.118%,26.19%,-4.345%,2.105%
CCc1cnc(CN(C)C(=O)Nc2cnc3c(c2)c(C)nn3C)s1,-2.601%,22.38%,-28.71%,2.674%
O=C(c1ccoc1)N1CCO[C@@H]2CNC[C@@H]21,-,-,-4.232%,-2.21%
Cc1cc(C2CCCN2C(=O)NCc2c(C)cc(C)[nH]c2=O)on1 (stereo not given),-0.8045%,13.28%,-4.707%,4.871%
CC(=O)c1cccc(OCCCC(=O)N(C)CCc2ccncc2)c1,4.721%,40.4%,-20.54%,4.167%
CN(C)C(=O)Cn1c(C2CC2)c(CN2CCOCC2)c2cccnc21,-4.486%,22.11%,-6.254%,6.202%
CN(C)C1CCN(C(=O)c2ccnn2-c2ccc3ccccn23)CC1,-,-,26.97%,1.058%
O=C(c1ccco1)N1Cc2nccn2CC(Cn2ncccc2=O)C1 (stereo not given),-3.103%,-11.28%,-12.56%,8.571%
COc1cccc(OCC(=O)N(C)c2cccnc2)c1,4.846%,-19.93%,-7.976%,8%
Cc1nc(CN2CCCC(CCNS(C)(=O)=O)C2)c[nH]1 (stereo not given),1.086%,-4.581%,-5.039%,0.8264%
Cc1ccc(=O)n(CC2(O)CCN(Cc3ccoc3)CC2)n1,-,5.658%,-12.35%,4.255%
CN1CCC2(C=C(C(=O)N3CCCC3)c3ccccc32)CC1,1.205%,-,0.9269%,2.97%
O=C(O)C(F)(F)F.[H][C@@]12CCN(C3CCC3)[C@]1([H])CC[C@H](C(=O)NCc1ccco1)O2,-,22.02%,-,-
COCCCNC(=O)Nc1cc(-c2ccccc2C)nn1CCO,2.859%,26.44%,-7.13%,2.941%
CCCS(=O)(=O)CC(=O)NC(C)c1cccc(-n2cccn2)c1 (stereo not given),-1.467%,-27.51%,-15.56%,0.9804%
COC(=O)N(C)CCCC(=O)Nc1[nH]nc(-c2ccncc2)c1C,-3.374%,8.099%,-42.1%,4.04%
Nc1cc2c(nn1)CCN(C(=O)CCC1CCCCC1)C2,-4.47%,9.629%,14.77%,1.143%
CC(Oc1ccc(OCc2ncc(C(C)C)o2)cc1)C(N)=O (stereo not given),-3.054%,0.1603%,-5.817%,5.155%
Cc1c(NCc2cccnc2)cccc1C(=O)N1CCC(N(C)C)C1 (stereo not given),4.993%,-4.955%,-9.192%,8%
COc1ccccc1C(=O)N1Cc2cc(C)ccc2OCC1CN(C)C.Cl (stereo not given),-,19.56%,-,-
Cc1cnc(C(=O)N2CCN(Cc3csc(C)n3)CC2)cn1,6.537%,4.636%,-4.233%,9.045%

The last 3 entries again:

Cc1c(NCc2cccnc2)cccc1C(=O)N1CCC(N(C)C)C1 (stereo not given) gave A: 4.993%; B: -4.955%; C: -9.192%; D: 8%.
COc1ccccc1C(=O)N1Cc2cc(C)ccc2OCC1CN(C)C.Cl (stereo not given) gave B: 19.56%.
Cc1cnc(C(=O)N2CCN(Cc3csc(C)n3)CC2)cn1 gave A: 6.537%; B: 4.636%; C: -4.233%; D: 9.045%.